Laboratory results as given in the supplement of paper PMC10849652.
The list shows a part of the results.

Sequences of proteins named here, by UniProt entry; tags and fusion partners are left off. A change or cut given only in a name is not applied to a line headed by its entry.
UniProt Q8TDH9: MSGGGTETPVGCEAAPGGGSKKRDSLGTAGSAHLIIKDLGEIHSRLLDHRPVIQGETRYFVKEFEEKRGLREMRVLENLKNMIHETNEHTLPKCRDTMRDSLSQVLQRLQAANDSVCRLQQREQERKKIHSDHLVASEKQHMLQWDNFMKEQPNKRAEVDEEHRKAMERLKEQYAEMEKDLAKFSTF
UniProt O75531: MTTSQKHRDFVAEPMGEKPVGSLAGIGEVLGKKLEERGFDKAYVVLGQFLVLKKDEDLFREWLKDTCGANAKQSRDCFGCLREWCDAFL
UniProt H3BUF6: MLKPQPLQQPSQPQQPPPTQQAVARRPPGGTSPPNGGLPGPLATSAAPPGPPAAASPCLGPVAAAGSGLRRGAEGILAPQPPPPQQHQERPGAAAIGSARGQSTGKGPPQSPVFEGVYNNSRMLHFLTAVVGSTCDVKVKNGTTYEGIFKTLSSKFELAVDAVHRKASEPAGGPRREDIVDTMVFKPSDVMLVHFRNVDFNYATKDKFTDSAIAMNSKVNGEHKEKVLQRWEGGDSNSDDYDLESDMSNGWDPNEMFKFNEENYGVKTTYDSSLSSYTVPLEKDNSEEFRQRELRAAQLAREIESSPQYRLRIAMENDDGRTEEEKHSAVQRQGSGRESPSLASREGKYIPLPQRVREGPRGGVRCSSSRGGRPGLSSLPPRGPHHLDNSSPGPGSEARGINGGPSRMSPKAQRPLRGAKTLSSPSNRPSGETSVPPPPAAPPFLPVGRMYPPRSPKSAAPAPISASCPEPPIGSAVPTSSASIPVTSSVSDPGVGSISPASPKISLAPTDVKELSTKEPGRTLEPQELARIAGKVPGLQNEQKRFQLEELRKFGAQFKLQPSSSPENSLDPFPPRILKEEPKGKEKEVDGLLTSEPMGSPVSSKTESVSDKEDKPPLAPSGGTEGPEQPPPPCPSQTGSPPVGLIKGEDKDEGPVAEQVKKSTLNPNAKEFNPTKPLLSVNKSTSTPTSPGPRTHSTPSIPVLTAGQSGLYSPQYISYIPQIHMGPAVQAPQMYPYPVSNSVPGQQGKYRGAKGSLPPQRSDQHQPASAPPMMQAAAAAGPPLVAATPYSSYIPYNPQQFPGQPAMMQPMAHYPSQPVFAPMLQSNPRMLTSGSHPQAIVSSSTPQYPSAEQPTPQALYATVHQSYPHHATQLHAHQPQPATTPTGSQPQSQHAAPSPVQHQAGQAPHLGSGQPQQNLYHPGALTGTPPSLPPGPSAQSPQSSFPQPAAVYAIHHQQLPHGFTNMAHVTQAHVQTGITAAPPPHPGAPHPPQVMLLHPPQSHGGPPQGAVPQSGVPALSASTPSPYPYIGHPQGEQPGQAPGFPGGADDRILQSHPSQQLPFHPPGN
UniProt O95999: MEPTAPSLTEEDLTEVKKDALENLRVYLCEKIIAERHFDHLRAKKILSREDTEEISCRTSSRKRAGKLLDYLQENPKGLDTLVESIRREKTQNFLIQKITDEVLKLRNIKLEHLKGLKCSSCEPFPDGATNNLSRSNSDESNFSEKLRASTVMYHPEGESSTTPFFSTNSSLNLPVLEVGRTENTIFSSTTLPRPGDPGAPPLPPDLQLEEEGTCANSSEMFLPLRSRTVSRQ
UniProt O75934: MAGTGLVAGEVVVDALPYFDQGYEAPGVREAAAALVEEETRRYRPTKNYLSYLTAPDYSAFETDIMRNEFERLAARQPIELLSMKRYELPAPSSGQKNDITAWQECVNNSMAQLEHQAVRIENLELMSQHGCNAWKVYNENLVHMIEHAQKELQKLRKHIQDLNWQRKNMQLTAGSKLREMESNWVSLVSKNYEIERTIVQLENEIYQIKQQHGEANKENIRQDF
UniProt Q9UHR4: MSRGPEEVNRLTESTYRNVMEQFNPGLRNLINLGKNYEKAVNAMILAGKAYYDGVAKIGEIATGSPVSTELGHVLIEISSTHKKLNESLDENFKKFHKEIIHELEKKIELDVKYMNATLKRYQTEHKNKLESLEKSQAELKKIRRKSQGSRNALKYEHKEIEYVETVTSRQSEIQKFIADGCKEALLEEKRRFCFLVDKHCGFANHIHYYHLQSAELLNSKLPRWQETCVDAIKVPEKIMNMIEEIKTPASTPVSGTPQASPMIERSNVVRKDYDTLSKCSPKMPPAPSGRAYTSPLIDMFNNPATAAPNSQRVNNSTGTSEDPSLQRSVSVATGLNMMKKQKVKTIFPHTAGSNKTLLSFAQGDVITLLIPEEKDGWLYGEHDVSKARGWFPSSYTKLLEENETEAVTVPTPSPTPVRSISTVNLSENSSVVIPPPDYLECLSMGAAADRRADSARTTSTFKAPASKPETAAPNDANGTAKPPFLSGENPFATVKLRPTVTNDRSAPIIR
UniProt Q9UBB4: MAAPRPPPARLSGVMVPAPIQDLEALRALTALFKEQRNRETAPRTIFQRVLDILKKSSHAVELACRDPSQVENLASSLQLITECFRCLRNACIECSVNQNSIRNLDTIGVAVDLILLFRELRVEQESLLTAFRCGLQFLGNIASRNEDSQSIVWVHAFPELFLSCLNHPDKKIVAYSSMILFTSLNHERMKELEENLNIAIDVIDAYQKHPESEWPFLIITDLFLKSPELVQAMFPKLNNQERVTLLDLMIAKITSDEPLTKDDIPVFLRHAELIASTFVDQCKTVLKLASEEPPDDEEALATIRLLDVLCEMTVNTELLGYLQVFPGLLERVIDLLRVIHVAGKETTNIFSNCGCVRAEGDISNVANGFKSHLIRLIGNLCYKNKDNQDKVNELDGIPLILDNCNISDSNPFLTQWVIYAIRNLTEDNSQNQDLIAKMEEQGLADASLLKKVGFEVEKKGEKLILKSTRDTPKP
UniProt Q14692: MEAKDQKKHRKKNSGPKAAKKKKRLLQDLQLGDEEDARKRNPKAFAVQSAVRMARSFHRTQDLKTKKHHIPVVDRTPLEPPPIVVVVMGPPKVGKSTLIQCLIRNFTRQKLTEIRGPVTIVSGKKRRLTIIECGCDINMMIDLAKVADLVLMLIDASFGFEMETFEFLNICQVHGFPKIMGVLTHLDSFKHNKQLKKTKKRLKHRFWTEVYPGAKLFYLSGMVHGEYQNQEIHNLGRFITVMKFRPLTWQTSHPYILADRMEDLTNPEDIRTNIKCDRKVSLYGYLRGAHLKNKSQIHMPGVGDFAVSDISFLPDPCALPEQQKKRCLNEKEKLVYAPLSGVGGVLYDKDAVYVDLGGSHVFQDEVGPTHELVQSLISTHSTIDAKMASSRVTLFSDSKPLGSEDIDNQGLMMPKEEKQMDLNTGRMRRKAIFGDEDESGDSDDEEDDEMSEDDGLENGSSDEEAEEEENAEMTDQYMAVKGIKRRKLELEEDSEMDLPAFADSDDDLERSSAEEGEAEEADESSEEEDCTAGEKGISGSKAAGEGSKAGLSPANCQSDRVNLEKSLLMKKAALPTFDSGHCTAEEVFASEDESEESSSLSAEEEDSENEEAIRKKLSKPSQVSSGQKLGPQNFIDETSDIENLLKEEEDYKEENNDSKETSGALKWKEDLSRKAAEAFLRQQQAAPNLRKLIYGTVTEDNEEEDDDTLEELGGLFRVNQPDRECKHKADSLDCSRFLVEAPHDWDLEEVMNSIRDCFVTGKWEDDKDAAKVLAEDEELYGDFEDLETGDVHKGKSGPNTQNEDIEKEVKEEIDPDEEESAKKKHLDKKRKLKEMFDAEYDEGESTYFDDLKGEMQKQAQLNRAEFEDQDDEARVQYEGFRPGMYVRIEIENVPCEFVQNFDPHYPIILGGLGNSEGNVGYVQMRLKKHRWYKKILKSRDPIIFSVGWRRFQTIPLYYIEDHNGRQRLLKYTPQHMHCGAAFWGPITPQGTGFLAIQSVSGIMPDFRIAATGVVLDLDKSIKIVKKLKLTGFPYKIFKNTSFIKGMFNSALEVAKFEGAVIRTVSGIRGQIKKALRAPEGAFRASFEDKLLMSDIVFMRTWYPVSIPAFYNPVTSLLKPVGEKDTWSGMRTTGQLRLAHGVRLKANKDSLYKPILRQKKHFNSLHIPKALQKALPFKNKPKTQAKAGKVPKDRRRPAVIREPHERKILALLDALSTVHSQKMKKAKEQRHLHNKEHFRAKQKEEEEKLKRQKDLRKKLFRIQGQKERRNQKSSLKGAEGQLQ
UniProt Q8NCR0: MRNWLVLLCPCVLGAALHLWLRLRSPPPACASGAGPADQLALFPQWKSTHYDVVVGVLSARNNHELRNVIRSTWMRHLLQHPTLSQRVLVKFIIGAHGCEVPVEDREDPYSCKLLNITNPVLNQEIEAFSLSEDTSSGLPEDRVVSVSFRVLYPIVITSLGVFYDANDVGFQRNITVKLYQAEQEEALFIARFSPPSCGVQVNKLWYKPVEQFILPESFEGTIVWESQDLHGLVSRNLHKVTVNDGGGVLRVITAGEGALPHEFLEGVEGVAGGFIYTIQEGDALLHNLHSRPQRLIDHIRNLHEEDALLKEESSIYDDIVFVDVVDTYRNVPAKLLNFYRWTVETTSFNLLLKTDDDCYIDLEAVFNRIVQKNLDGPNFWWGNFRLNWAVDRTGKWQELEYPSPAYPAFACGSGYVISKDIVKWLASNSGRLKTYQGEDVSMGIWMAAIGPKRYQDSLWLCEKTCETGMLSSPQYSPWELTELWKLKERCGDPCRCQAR
UniProt Q96GX2: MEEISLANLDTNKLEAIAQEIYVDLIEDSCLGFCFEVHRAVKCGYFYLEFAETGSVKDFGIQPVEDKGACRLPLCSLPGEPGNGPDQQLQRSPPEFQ
UniProt P25311: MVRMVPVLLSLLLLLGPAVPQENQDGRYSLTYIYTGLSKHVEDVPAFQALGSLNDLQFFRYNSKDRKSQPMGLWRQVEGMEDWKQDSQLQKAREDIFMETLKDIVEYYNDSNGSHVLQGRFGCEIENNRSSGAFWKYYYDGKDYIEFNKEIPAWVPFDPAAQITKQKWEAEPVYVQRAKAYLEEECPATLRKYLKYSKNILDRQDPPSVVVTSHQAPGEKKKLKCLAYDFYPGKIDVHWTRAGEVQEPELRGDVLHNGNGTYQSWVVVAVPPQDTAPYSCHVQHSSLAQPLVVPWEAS
UniProt Q96GD4, whole entry, looked up: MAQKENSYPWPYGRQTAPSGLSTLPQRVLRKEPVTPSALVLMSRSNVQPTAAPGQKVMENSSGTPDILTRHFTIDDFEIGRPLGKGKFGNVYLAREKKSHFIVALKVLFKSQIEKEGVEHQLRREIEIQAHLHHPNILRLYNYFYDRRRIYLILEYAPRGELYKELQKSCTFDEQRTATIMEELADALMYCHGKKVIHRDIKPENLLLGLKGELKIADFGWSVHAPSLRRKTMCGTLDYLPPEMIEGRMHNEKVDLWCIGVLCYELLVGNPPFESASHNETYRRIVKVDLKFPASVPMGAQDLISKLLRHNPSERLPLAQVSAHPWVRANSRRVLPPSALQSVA
UniProt O43521, whole entry, looked up: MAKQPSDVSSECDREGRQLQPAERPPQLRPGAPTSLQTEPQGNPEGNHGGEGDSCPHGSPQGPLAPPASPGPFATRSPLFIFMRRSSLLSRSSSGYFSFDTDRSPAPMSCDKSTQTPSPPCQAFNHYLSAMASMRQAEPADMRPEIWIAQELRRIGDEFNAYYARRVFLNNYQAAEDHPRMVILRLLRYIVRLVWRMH
UniProt Q9NUP1: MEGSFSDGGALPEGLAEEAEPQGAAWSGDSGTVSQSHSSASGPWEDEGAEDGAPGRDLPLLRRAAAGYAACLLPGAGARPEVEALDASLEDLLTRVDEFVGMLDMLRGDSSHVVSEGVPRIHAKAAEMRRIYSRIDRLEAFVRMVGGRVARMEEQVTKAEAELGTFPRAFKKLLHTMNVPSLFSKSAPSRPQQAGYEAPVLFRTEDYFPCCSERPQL
UniProt Q12981: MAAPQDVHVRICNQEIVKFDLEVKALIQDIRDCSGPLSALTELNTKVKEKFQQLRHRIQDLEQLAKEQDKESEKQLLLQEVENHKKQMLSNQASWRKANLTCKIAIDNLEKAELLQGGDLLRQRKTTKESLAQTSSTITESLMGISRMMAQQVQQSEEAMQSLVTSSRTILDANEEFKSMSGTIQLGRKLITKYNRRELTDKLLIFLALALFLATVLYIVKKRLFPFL
UniProt Q13490, whole entry, looked up: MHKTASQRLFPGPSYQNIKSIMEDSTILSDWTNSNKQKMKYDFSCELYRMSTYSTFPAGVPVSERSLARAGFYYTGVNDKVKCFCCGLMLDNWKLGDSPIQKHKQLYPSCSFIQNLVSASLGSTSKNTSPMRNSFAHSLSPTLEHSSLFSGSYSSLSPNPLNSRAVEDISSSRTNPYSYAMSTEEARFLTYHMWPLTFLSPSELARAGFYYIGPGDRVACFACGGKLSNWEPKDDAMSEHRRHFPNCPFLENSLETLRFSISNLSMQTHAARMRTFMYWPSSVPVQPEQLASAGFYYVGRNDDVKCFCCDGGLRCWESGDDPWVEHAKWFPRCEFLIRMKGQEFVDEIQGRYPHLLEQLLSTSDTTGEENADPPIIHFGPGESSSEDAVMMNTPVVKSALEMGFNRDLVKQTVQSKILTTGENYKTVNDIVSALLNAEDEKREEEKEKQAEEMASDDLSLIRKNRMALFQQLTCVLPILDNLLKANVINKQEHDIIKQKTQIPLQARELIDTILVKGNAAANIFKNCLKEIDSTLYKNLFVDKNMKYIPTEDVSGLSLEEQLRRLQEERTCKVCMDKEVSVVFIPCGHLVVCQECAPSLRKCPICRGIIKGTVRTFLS

compound: c1cn2cc(-c3ccc4cn[nH]c4c3)nc(Nc3ccc(N4CCOCC4)cc3)c2n1 [entospletinib]; assay: log2 fold change, soluble protein after heating vs DMSO (PISA); higher = thermal stabilisation; K562 cells, 10 uM, 30 min; active = over 0.2 and 3.5 SD of the protein, either way, in both replicates (recomputed)
Outline: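 Aliquots of K562 cells (2×10^6 cells/mL) treated with 10 μM compound for 30 min were heated for 3 min over 48°C-58°C. After pooling and extraction in PBS with 0.5% NP-40 at 4°C, soluble protein from a 21,000xg, 90 min spin was quantified by TMTpro 16plex LC-MS/MS with channel sums equalised. Thermal stability is expressed against control samples, from duplicates, as a log2 fold change.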

log2 fold change, inactive:
BCDIN3D (UniProt Q7Z5W3) -0.066
BORCS5 (UniProt Q969J3) 0.089
BLOC1S5 (UniProt Q8TDH9) 0.003
BPNT1 (UniProt A6NF51) -0.056
BANF1 (UniProt O75531) 0.016
ATXN2L (UniProt H3BUF6) -0.102
BCL10 (UniProt O95999) -0.021
BAHD1 (UniProt Q8TBE0) 0.012
BCAS2 (UniProt O75934) 0.066
BAIAP2L1 (UniProt Q9UHR4) 0.022
B3GLCT (UniProt Q6Y288) 0.026
ATXN10 (UniProt Q9UBB4) -0.021
BNIP2 (UniProt J3KN59) -0.035
AURKAIP1 (UniProt Q9NWT8) 0.068
BMS1 (UniProt Q14692) -0.046
B3GALNT2 (UniProt Q8NCR0) -0.307
ATXN7L3B (UniProt Q96GX2) -0.019
AZGP1 (UniProt P25311) -0.075
AURKB isoform 5 (UniProt Q96GD4) 0.339
BCL2L11 (UniProt O43521) 0.142
BLOC1S4 (UniProt Q9NUP1) 0.075
BNIP1 (UniProt Q12981) -0.019
BIRC2 (UniProt Q13490) -0.006

As a short view, part of the list above:
log2 fold change, inactive:
BLOC1S5 (UniProt Q8TDH9) 0.003
BPNT1 (UniProt A6NF51) -0.056
